Measured values published in US12691093B2 (THE TRUSTEES OF INDIANA UNIVERSITY, priority 2020, dated 2026).

Question: For `C=C1CCCC2(C)C=C3OC(=O)C(C)=C3CC12` (stereo not drawn) [ATT-I, atractylenolide I], which “CD8+ T cell cytotoxicity upon treatment of CD8+ T cells only” value (MC38-OVA cells) is on record?
Answer: did not have notable effect

Question: And the toxicity in vivo (at the tested doses)?
Answer: no notable toxicity

Question: What about the “systemic toxicity (body weights and pathological analysis of major organs)” value (versus control vehicle group) of the same compound?
Answer: negligible systemic toxicity
